Test results as given in US9517222B2, “Method for the treatment of senile dementia of the Alzheimer's type” (Phenomenome Discoveries Inc., priority 2007, dated 2016).

Assays:
[1] = Serum ethanolamine phospholipid ratios to PtdEt 16:0/18:0 (M01) in human cohorts
[2] = Serum ethanolamine phospholipid levels in human cohorts (dementia severity, post-mortem pathology, age) by flow-injection MS/MS
[3] = serum, females, post mortem SDAT
[4] = serum, females, post mortem control

CCCCC/C=C\C/C=C\CCCCCCCC(=O)OC(CO/C=C\CCCCCCCCCCCCCC)COP(=O)(O)OCCN (centres unmarked) [Metabolite M16, Plasmenyl 16:0/18:2]
Ratio of ethanolamine phospholipid ratios to M01 between cohorts ([1]; AD, All to CN, Male): 0.747
Ratio of ethanolamine phospholipid ratios to M01 between cohorts ([1]; ADAS 5-19 to CN, Male): 0.774
Ratio of ethanolamine phospholipid ratios to M01 between cohorts ([1]; ADAS 20-39 to CN, Male): 0.741
Ratio of ethanolamine phospholipid ratios to M01 between cohorts ([1]; ADAS 40-70 to CN, Male): 0.704
Average serum ethanolamine phospholipid ratio to M01, Mean ([1]; Cognitive Normal, Male, serum): 2.398
Average serum ethanolamine phospholipid ratio to M01, Mean ([1]; SDAT, ADAS 5-19, Male, serum): 1.856
Average serum ethanolamine phospholipid ratio to M01, Mean ([1]; SDAT, ADAS 20-39, Male, serum): 1.777
Average serum ethanolamine phospholipid ratio to M01, Mean ([1]; SDAT, ADAS 40-70, Male, serum): 1.687
Average serum ethanolamine phospholipid ratio to M01, Mean ([1]; SDAT_all, Male, serum): 1.790
Ethanolamine Phospholipid Ratio to M01, Mean, Age Ctl, 30-39, Female ([1]; human serum, females aged 30-39): 2.739
Ethanolamine Phospholipid Ratio to M01, Mean, Age Ctl, 40-49, Female ([1]; human serum, females aged 40-49): 2.483
Ethanolamine Phospholipid Ratio to M01, Mean, Age Ctl, 50-59, Female ([1]; human serum, females aged 50-59): 2.345
Ratio of Ethanolamine Phospholipid Ratio to M01, 50-59 vs. 40-49, Female ([1]; human serum, females aged 50-59 vs. females aged 40-49): 0.944
Ethanolamine Phospholipid Ratio to M01, Mean, Age Ctl, 60-69, Female ([1]; human serum, females aged 60-69): 1.783
Ratio of Ethanolamine Phospholipid Ratio to M01, 60-69 vs. 40-49, Female ([1]; human serum, females aged 60-69 vs. females aged 40-49): 0.718
Ethanolamine Phospholipid Ratio to M01, Mean, Age Ctl, 70+_Female ([1]; human serum, females aged 70+): 1.964
Ratio of Ethanolamine Phospholipid Ratio to M01, 70+ vs. 40-49, Female ([1]; human serum, females aged 70+ vs. females aged 40-49): 0.791
Ratio of Ethanolamine Phospholipid Ratio to M01, 50-59 vs. 40-49, Male ([1]; human serum, males aged 50-59 vs. males aged 40-49): 1.131
Ratio of Ethanolamine Phospholipid Ratio to M01, 60-69 vs. 40-49, Male ([1]; human serum, males aged 60-69 vs. males aged 40-49): 0.880
Ratio of Ethanolamine Phospholipid Ratio to M01, 70+ vs. 40-49, Male ([1]; human serum, males aged 70+ vs. males aged 40-49): 0.951
Ratio of ethanolamine phospholipid ratio to M01, ADAS 5-19 to CN, Female ([1]; serum, females, ADAS 5-19 vs cognitive normal): 0.901
Ratio of ethanolamine phospholipid ratio to M01, ADAS 20-39 to 5-19, Female ([1]; serum, females, ADAS 20-39 vs ADAS 5-19): 0.956
Ratio of ethanolamine phospholipid ratio to M01, ADAS 20-39 to CN, Female ([1]; serum, females, ADAS 20-39 vs cognitive normal): 0.861
Ratio of ethanolamine phospholipid ratio to M01, ADAS 40-70 to 5-19, Female ([1]; serum, females, ADAS 40-70 vs ADAS 5-19): 0.737
Ratio of ethanolamine phospholipid ratio to M01, ADAS 40-70 to 20-39, Female ([1]; serum, females, ADAS 40-70 vs ADAS 20-39): 0.771
Ratio of ethanolamine phospholipid ratio to M01, ADAS 40-70 to CN, Female ([1]; serum, females, ADAS 40-70 vs cognitive normal): 0.664
Ethanolamine phospholipid ratio to M01, Mean, SDAT, ADAS 5-19, Female ([1]; serum, females, SDAT ADAS 5-19): 1.994
Ethanolamine phospholipid ratio to M01, Mean, SDAT, ADAS 20-39, Female ([1]; serum, females, SDAT ADAS 20-39): 1.906
Ethanolamine phospholipid ratio to M01, Mean, SDAT, ADAS 40-70, Female ([1]; serum, females, SDAT ADAS 40-70): 1.470
Ratio of ethanolamine phospholipid ratio to M01, AD, All to CN, Female ([1]; serum, females, all AD vs cognitive normal): 0.804
Ethanolamine phospholipid ratio to M01, Mean, SDAT_all Female ([1]; serum, females, all SDAT): 1.780
Ratio of ethanolamine phospholipid ratio to M01, Autopsy AD vs. Control, Female ([1]; serum, females, autopsy AD vs post mortem control): 0.895
Ethanolamine phospholipid ratio to M01, Mean, Cognitive Normal, Female ([1]; serum, females, cognitive normal): 2.214
Ethanolamine phospholipid ratio to M01, Mean, Post Mortem SDAT Female [1, 3]: 0.599
Ethanolamine phospholipid ratio to M01, Mean, Post Mortem Ctl, Female [1, 4]: 0.670
Ratio of ethanolamine phospholipid ratio to M01, ADAS 20-39 to 5-19, Male ([1]; serum, males, SDAT ADAS 20-39 vs ADAS 5-19): 0.957
Ratio of ethanolamine phospholipid ratio to M01, ADAS 40-70 to 5-19, Male ([1]; serum, males, SDAT ADAS 40-70 vs ADAS 5-19): 0.909
Ratio of ethanolamine phospholipid ratio to M01, ADAS 40-70 to 20-39, Male ([1]; serum, males, SDAT ADAS 40-70 vs ADAS 20-39): 0.950
Ethanolamine phospholipid ratio to M01, Mean, Age Ctl, 30-39, Male ([1]; serum, males, age control 30-39): 2.429
Ethanolamine phospholipid ratio to M01, Mean, Age Ctl, 40-49, Male ([1]; serum, males, age control 40-49): 2.020
Ethanolamine phospholipid ratio to M01, Mean, Age Ctl, 50-59, Male ([1]; serum, males, age control 50-59): 2.284
Ethanolamine phospholipid ratio to M01, Mean, Age Ctl, 60-69, Male ([1]; serum, males, age control 60-69): 1.778
Ethanolamine phospholipid ratio to M01, Mean, Age Ctl, 70+_Male ([1]; serum, males, age control 70+): 1.922
Ethanolamine phospholipid ratio to M01, Mean, Post Mortem SDAT Male ([1]; serum, males, post mortem SDAT): 0.627
Ratio of ethanolamine phospholipid ratio to M01, SDAT vs Control (post mortem, males) ([1]; serum, males, post mortem SDAT vs post mortem control): 0.791
Ethanolamine phospholipid ratio to M01, Mean, Post Mortem Ctl, Male ([1]; serum, males, post mortem control): 0.792
Ratio of serum levels ([2]; AD, All to CN, Male): 0.778
Ratio of serum levels ([2]; ADAS 5-19 to CN, Male): 0.802
Ratio of serum levels ([2]; ADAS 20-39 to 5-19, Male): 0.947
Ratio of serum levels ([2]; ADAS 20-39 to CN, Male): 0.759
Ratio of serum levels ([2]; ADAS 40-70 to 5-19, Male): 0.895
Ratio of serum levels ([2]; ADAS 40-70 to 20-39, Male): 0.946
Ratio of serum levels ([2]; ADAS 40-70 to CN, Male): 0.718
Serum level, Mean ([2]; Cognitive Normal, Female): 0.250
Average serum level, Mean ([2]; Cognitive Normal, Male): 0.266
Serum level, Mean ([2]; Post Mortem Ctl, Male): 0.092
Serum level, Mean ([2]; Post Mortem SDAT Male): 0.053
Ratio of serum levels ([2]; Post mortem SDAT vs Control, Male): 0.570
Serum level, Mean ([2]; SDAT, ADAS 5-19, Female): 0.214
Average serum level, Mean ([2]; SDAT, ADAS 5-19, Male): 0.213
Serum level, Mean ([2]; SDAT, ADAS 20-39, Female): 0.201
Average serum level, Mean ([2]; SDAT, ADAS 20-39, Male): 0.202
Serum level, Mean ([2]; SDAT, ADAS 40-70, Female): 0.164
Average serum level, Mean ([2]; SDAT, ADAS 40-70, Male): 0.191
Serum level, Mean ([2]; SDAT_all, Female): 0.192
Average serum level, Mean ([2]; SDAT_all, Male): 0.207
Ratio, ADAS 5-19 to CN, Female ([2]; serum level ratio, females, ADAS 5-19 vs CN): 0.853
Ratio, ADAS 20-39 to 5-19, Female ([2]; serum level ratio, females, ADAS 20-39 vs ADAS 5-19): 0.940
Ratio, ADAS 20-39 to CN, Female ([2]; serum level ratio, females, ADAS 20-39 vs CN): 0.801
Ratio, ADAS 40-70 to 5-19, Female ([2]; serum level ratio, females, ADAS 40-70 vs ADAS 5-19): 0.769
Ratio, ADAS 40-70 to 20-39, Female ([2]; serum level ratio, females, ADAS 40-70 vs ADAS 20-39): 0.819
Ratio, ADAS 40-70 to CN, Female ([2]; serum level ratio, females, ADAS 40-70 vs CN): 0.656
Ratio, 50-59 vs. 40-49, Female ([2]; serum level ratio, females, age 50-59 vs 40-49): 0.846
Ratio, 60-69 vs. 40-49, Female ([2]; serum level ratio, females, age 60-69 vs 40-49): 0.786
Ratio, 70+ vs. 40-49, Female ([2]; serum level ratio, females, age 70+ vs 40-49): 0.867
Ratio, AD, All to CN, Female ([2]; serum level ratio, females, all AD vs cognitively normal): 0.765
Ratio, Autopsy AD vs. Control, Female ([2]; serum level ratio, females, autopsy AD vs control): 0.594
Ratio, 50-59 vs. 40-49, Male ([2]; serum level ratio, males, age 50-59 vs 40-49): 1.109
Ratio, 60-69 vs. 40-49, Male ([2]; serum level ratio, males, age 60-69 vs 40-49): 1.013
Ratio, 70+ vs. 40-49, Male ([2]; serum level ratio, males, age 70+ vs 40-49): 1.118
Mean serum level, Age Ctl, 30-39, Female ([2]; serum, females, age 30-39): 0.274
Mean serum level, Age Ctl, 40-49, Female ([2]; serum, females, age 40-49): 0.268
Mean serum level, Age Ctl, 50-59, Female ([2]; serum, females, age 50-59): 0.226
Mean serum level, Age Ctl, 60-69, Female ([2]; serum, females, age 60-69): 0.210
Mean serum level, Age Ctl, 70+, Female ([2]; serum, females, age 70+): 0.232
Mean serum level, Post Mortem SDAT, Female [2, 3]: 0.064
Mean serum level, Post Mortem Ctl, Female [2, 4]: 0.107
Mean serum level, Age Ctl, 30-39, Male ([2]; serum, males, age 30-39): 0.291
Mean serum level, Age Ctl, 40-49, Male ([2]; serum, males, age 40-49): 0.220
Mean serum level, Age Ctl, 50-59, Male ([2]; serum, males, age 50-59): 0.244
Mean serum level, Age Ctl, 60-69, Male ([2]; serum, males, age 60-69): 0.223
Mean serum level, Age Ctl, 70+, Male ([2]; serum, males, age 70+): 0.246

A unit is not stated for every read-out.
